According to publication PMC8637128:
No constants are given. Whether binding was seen depends on the method and setting. In cells and extracts the contact can be indirect. Some results given as binding are weak or reduced against the parent protein; the word gives no strength.

Amino acid sequences for entries named in this document (tags omitted).
UniProt Q61221: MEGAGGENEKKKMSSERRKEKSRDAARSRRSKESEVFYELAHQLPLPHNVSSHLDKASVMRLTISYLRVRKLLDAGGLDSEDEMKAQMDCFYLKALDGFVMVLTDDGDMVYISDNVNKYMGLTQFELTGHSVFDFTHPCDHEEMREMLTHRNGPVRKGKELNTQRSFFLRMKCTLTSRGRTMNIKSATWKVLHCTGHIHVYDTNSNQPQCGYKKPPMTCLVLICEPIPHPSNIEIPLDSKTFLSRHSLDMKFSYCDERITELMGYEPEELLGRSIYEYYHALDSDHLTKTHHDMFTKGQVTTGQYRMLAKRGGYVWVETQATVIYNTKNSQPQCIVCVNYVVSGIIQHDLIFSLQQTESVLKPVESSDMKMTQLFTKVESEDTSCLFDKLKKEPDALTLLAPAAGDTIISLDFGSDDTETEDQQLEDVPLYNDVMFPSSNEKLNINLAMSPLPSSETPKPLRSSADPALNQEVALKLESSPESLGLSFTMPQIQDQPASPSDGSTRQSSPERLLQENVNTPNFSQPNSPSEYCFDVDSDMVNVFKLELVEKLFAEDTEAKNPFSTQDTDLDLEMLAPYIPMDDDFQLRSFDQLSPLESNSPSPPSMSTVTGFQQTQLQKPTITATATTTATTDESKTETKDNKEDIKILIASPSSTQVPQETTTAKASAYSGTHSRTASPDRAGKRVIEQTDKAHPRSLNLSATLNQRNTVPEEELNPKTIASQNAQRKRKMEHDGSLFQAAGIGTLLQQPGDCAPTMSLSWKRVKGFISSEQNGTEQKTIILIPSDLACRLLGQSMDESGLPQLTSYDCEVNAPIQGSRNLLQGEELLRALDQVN
UniProt Q9WVC6: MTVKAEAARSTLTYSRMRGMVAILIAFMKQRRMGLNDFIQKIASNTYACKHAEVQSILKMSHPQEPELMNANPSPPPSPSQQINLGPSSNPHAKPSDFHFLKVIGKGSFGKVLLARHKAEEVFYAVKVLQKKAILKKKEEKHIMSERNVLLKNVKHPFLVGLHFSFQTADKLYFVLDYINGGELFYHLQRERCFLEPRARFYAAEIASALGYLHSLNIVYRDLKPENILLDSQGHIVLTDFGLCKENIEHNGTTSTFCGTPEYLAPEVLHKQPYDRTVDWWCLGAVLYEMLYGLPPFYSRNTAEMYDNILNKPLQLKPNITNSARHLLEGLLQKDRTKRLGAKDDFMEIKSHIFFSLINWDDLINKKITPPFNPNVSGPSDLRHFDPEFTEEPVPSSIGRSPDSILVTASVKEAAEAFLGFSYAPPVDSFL

Target: hypoxia inducible factor-1 alpha (UniProt Q61221)
Assay: co-IP; co-immunoprecipitation of SGK1 and HIF-1α; the precipitated protein, the cells and the conditions are not told (section on HEI-OC1 cells)

- binding: binds
Substance: serum and glucocorticoid-induced protein kinase 1 (from UniProt Q9WVC6 1-431)
